PubChem BioAssay AID720505 | Drosophila RNAi Screening Center, 2013
Aim: 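Fly regulators or components of the CRAC channel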 (primary screen). Cell system: Drosophila S2R+ cells. Knock-down reagent: long dsRNA against Drosophila genes. Challenge: thapsigargin (2 µM) in calcium-free buffer to empty internal stores, then 2 mM calcium added back. Measurement: 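Stores emptied by 2 µM thapsigargin without calcium, then 2 mM calcium re-added; fluo-4 fluorescence followed by FLIPR in 384-well plates, per-well averaged endpoint, raw; two screen passes, some wells retested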. Scale: calcium signal and retest calcium signal: higher = more calcium entry after store depletion. Call rule: 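Knock-downs counted as hits when calcium entry dropped relative to STIM1 positive and Rho1 negative controls present on each plate; roughly 1500 genes called, with reductions of differing size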. Meaning of the calls: active = called as lowering calcium entry; inactive = not called.
The deposit covers about 20,000 reagents; this is an unselected part of those that have a named target and a result. Of all reagents, about 2,100 (10%) got an active call. 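Raw plate signals without normalisation; calls rest on control-based scores that were not deposited; replicate 2 separates called from uncalled poorly.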 Unmarked entries are inactive. Names joined by + are all predicted targets of the reagent. Not stated in the record: the amount of reagent, the time to read-out.

gene,amplicon,"calcium signal, replicate 1","calcium signal, replicate 2","retest calcium signal, replicate 1","retest calcium signal, replicate 2"
CG7907,DRSC16339,75.7 (active),157,,
Vps25 (Vacuolar protein sorting 25),DRSC06486,109,120,,
Tfb4 (Transcription factor B4),DRSC00675,176,142,,
Jon65Aiv (Jonah 65Aiv),DRSC10644,58.9,66,,
snky (sneaky),DRSC09838,98.8,78.4,,
Wdr59 (WD repeat domain 59),DRSC02771,111,106,,
CG6071,DRSC10579,111,93.3,,
MED22 (Mediator complex subunit 22),DRSC18175,119,135,,
CG8993,DRSC08616,110,84.6,,
CG14669,DRSC12255,124,120,,
Taz (Tafazzin),DRSC07704,123,169,111,123
Taz (Tafazzin),DRSC22625,123,220,,
Est-Q (Esterase Q),DRSC11835,101,86.6,,
antr (antares),DRSC22392,84.8,85.6,,
Hen1 (Hen1 methyltransferase),DRSC06139,153,132,,
Hen1 (Hen1 methyltransferase),DRSC06140,84.5,113,,
CG14636,DRSC12223,145,183,,
CG5614,DRSC15845,147,143,7832,210
Kul (Kuzbanian-like),DRSC15404,159,164,,
CG31637,DRSC02270,117,236,,
CG31637,DRSC03263,119,94.7,,
CG31388,DRSC15254,82,125,,
l(3)76BDm (lethal (3) 76BDm),DRSC11047,108,96.9,,
Non1 (Novel nucleolar protein 1),DRSC05954,170,104,,
GstT2 (Glutathione S transferase T2),DRSC06244,138,135,,
CG5556,DRSC00687,149,172,,
CG5853,DRSC01103,180,115,,
CG5853,DRSC02906,69 (active),104,,
CG6628,DRSC10679,93.6,85.9,,
ppk24 (pickpocket 24),DRSC15093,235,121,,
mtm (myotubularin),DRSC03576,100,237,,
CG2217 + CG42740,DRSC14141,97.7,163,,
Graf (GTPase regulator associated with FAK),DRSC20131,164,134,,
CG12974,DRSC11684,91.7,158,,

Reagents listed above with an active call (2):
gene,amplicon,"calcium signal, replicate 1","calcium signal, replicate 2","retest calcium signal, replicate 1","retest calcium signal, replicate 2"
CG7907,DRSC16339,75.7 (active),157,,
CG5853,DRSC02906,69 (active),104,,
